The target of assay [1] is TRPM1 (mouse (endogenous in retina)) (UniProt Q2TV84). Description: affinity purification with mass spectrometry; control mouse retina lysate (1% Nonidet P-40, 2 mM EDTA, 20 mM HEPES pH 7.4), pre-cleared, incubated with anti-TRPM1 or anti-LRFN2 antibodies overnight at 4°C, Dynabeads; in-gel tryptic digestion, LC-MS (Orbitrap Elite); non-immune IgG as control.
Assay [2] addresses T1, LRFN2 (leucine-rich repeat and fibronectin III domain-containing 2) (mouse (endogenous in retina)) (UniProt Q80TG9).
T1 sequence: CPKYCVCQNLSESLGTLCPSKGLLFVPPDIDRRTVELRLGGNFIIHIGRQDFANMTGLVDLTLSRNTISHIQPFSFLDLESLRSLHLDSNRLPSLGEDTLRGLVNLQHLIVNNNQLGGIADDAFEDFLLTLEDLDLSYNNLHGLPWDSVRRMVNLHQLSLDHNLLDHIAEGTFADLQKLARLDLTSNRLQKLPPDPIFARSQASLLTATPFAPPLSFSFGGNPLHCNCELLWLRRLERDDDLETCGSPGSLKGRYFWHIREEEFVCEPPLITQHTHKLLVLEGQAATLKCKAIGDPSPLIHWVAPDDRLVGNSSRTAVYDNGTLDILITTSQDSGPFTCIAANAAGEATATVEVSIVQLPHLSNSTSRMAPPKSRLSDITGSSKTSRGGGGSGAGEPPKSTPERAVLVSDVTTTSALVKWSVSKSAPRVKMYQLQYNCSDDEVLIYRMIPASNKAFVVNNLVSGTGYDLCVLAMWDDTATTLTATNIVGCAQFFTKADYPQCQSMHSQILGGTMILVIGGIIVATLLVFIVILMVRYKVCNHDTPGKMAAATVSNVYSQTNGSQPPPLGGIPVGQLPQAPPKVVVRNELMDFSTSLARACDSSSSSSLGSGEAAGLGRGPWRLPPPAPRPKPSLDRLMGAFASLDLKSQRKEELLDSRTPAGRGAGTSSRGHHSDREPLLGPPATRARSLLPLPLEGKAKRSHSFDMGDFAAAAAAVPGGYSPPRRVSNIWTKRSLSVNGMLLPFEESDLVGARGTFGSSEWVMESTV
The assay is described as above.

Sequences of proteins named here, by UniProt entry; tags and fusion partners are left off. Residues count along the entry.
UniProt Q2TV84: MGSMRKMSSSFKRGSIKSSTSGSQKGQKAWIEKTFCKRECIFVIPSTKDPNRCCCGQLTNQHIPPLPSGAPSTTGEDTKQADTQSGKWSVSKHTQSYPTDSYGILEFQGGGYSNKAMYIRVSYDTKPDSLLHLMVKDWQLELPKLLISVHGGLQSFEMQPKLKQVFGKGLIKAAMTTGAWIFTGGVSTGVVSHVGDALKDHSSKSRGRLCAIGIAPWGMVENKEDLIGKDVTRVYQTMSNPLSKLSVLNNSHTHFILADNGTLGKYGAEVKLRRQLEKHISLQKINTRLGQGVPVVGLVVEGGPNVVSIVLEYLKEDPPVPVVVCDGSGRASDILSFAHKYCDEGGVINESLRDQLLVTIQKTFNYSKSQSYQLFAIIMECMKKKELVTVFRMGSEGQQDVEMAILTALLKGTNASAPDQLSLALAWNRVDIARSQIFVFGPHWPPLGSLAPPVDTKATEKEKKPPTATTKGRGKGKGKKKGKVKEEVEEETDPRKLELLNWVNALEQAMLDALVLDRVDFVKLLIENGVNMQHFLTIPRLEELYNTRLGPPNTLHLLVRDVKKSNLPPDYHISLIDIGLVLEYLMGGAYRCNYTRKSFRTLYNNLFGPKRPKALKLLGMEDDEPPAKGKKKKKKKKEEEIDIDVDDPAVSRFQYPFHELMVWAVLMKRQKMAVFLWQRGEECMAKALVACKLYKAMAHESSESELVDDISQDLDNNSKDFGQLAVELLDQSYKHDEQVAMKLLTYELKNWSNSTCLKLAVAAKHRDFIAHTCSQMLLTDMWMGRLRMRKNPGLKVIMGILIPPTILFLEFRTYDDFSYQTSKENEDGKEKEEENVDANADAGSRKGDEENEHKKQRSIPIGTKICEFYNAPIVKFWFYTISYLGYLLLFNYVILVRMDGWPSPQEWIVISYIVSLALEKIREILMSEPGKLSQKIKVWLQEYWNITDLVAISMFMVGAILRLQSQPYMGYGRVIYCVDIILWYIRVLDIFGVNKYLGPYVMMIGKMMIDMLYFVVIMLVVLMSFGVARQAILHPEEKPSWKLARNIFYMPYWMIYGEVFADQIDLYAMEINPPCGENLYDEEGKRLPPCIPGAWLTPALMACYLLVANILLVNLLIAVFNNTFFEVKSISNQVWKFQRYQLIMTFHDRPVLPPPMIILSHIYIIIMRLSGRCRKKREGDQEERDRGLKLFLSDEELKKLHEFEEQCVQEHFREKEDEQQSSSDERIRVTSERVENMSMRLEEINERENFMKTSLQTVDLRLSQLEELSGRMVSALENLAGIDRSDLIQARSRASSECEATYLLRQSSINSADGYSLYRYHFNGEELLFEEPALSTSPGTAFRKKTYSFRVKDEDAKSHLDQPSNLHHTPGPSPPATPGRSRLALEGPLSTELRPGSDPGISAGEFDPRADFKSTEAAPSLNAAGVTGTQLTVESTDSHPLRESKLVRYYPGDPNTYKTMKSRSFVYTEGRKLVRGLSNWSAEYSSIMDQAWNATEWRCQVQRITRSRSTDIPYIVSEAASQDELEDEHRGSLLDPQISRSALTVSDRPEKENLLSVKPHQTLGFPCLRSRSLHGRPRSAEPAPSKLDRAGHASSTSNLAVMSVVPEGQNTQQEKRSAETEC
UniProt E9PY61, residues 28-2293: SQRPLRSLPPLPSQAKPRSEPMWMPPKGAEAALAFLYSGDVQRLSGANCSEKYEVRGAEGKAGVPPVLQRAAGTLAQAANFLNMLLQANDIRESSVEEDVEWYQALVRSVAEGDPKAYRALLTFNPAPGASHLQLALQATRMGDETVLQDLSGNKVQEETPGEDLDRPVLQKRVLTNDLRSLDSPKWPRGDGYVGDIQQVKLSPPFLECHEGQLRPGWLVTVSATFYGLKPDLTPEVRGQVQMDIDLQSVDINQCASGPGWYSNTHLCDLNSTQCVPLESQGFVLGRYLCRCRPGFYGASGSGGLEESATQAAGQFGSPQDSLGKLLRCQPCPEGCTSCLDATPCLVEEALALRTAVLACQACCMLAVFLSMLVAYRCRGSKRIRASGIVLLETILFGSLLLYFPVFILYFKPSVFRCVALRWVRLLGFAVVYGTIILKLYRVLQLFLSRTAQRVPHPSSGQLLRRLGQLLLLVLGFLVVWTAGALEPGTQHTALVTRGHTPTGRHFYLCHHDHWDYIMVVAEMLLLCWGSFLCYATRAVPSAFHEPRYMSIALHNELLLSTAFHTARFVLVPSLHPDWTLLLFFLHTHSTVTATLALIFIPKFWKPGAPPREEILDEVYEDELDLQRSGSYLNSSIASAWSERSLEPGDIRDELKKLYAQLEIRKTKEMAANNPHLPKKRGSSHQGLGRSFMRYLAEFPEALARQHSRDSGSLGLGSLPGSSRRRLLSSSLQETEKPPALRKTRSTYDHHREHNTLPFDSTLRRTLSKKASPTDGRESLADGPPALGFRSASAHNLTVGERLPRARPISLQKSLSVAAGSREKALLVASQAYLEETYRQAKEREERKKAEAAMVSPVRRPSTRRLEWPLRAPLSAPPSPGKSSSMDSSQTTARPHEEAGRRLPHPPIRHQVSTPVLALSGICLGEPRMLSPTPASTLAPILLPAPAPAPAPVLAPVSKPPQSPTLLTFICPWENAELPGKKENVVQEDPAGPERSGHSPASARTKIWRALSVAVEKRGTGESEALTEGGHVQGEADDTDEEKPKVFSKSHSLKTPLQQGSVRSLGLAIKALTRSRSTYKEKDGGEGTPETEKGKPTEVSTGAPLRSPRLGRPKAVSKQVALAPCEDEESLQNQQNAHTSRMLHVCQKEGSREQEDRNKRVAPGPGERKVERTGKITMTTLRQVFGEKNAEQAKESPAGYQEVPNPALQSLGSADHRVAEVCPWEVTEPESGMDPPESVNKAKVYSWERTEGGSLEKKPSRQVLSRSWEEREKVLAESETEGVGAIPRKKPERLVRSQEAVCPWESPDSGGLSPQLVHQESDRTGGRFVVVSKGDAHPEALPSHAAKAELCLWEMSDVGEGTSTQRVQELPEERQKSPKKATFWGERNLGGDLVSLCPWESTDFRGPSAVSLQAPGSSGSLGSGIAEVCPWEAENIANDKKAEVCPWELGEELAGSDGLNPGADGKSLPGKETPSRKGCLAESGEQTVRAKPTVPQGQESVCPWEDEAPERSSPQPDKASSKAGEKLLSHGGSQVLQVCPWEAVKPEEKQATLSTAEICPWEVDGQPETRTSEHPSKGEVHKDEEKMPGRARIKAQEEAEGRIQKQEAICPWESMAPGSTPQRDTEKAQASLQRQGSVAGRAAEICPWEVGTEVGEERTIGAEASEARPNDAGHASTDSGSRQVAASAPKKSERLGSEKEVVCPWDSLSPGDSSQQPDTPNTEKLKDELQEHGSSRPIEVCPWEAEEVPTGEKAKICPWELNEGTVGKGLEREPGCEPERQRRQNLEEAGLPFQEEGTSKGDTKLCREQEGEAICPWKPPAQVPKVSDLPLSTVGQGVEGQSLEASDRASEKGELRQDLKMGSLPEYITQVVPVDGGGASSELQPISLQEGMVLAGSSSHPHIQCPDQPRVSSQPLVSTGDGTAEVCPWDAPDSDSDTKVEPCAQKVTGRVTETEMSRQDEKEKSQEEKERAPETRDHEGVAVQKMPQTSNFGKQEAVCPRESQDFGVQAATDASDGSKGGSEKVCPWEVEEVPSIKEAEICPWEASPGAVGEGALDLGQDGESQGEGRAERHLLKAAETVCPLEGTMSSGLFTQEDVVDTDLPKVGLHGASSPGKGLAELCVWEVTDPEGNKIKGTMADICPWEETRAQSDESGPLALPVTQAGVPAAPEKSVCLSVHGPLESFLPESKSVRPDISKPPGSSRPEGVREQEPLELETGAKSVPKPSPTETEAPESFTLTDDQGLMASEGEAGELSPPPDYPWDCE

No constants are given. Whether binding was seen depends on the method and setting. Binding seen in cells or lysates may run through a third protein. Here binding means that the protein was enriched with, or labelled near, the bait; the list need not be complete.

On to GPR179 (from UniProt E9PY61 28-2293), for which the binding result in assay [1] was “binds”.
As for TRPM1 (from UniProt Q2TV84 1-1622), the binding result in assay [2] is “binds”.

B1: LRFN2 (leucine-rich repeat and fibronectin III domain-containing 2) (protein, UniProt Q80TG9 21-788)
chain: T1 sequence
As for B1, the binding result in assay [1] is reported as “binds”.
